# Laboratory results reported in PubChem BioAssay (Tox21).
# The chains behind the UniProt entries cited, without tags or fusion partners. Where a name states a change or a piece, a line headed by the entry shows the natural chain unless it says otherwise.
# UniProt P28223, whole entry, looked up: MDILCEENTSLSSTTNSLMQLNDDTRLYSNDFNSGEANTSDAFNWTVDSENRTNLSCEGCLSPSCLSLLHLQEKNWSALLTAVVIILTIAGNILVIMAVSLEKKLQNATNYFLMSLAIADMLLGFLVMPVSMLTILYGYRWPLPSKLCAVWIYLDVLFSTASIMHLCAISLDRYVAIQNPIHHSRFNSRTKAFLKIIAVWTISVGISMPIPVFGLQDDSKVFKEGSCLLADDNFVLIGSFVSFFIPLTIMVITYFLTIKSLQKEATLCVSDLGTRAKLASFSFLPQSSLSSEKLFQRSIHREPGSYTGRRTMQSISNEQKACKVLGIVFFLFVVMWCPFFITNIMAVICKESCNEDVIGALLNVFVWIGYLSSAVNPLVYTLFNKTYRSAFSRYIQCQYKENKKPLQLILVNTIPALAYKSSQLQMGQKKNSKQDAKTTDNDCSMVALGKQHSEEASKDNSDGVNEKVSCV
# UniProt P11229: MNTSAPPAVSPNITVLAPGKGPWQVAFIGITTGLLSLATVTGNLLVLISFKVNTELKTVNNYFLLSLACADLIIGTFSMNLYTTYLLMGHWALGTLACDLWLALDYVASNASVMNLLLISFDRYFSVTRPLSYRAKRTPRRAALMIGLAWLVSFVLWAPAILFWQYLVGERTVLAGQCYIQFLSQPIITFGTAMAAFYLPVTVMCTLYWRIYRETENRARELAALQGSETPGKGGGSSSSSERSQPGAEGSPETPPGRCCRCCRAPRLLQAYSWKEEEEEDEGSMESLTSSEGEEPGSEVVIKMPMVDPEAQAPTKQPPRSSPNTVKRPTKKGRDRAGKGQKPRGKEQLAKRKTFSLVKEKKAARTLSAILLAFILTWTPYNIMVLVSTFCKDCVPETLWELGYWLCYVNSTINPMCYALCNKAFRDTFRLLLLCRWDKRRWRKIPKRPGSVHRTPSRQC
# UniProt P14416, whole entry, looked up: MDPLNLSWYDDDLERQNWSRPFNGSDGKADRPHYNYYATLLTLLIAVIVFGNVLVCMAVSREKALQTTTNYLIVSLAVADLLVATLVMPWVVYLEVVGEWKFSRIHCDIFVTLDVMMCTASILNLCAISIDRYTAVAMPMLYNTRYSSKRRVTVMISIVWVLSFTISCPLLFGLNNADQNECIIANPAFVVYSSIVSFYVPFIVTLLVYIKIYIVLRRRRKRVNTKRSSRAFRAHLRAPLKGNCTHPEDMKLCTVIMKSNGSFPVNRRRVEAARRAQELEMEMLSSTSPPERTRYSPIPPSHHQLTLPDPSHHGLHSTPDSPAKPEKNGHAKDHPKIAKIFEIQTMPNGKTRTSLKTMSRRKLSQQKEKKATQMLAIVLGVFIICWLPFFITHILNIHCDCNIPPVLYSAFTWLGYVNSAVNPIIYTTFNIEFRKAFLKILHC
# Inconclusive results, whose numbers are uncertain, are shown with a selection of clear calls. For some assays here: Potencies beside an inconclusive call are fits to weak or partial responses and may not hold up. Calls of active or inactive are those of the source. Unless noted, calls follow the shape of the full dose curve.
# Experiments:
# [1] = p53 small molecule agonists, cell-based qHTS assay with human liver microsomes: qHTS cell viability counter screen (AID 1963579); also: nearly all actives have a fitted effect of over 45% in size; also: potency is read from the fitted curve at half-maximal effect
# How it was run: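 HLM-supplemented (0.5 mg/mL final) and NADPH-supplemented (0.5 mg/mL final) p53RE-bla cultures, 4,000 cells per well, were dosed with compounds in DMSO for 16 h at 37 C; luminescent ATP detection (CellTiter-Glo, 30 min, room temperature) quantified surviving cells.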
# [2] = biological target: 5-hydroxytryptamine receptor 2A (Homo sapiens) (UniProt P28223); assay: 5-hydroxytryptamine receptor 2A (HTR2A) small molecule antagonists, cell-based qHTS assay (AID 1963586); also: potency is read from the fitted curve at half-maximal effect; nearly all actives have a fitted effect of over 45% in size
# How it was run: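 CHO cells stably expressing human HTR2A were plated for 18 h at 37 C, then loaded with calcium dye for 1 h. Compounds were preincubated 5 min at room temperature before DOI (4 nM solution) was added. Kinetic fluorescence was read for 3 min.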
# [3] = biological target: Muscarinic acetylcholine receptor M1 (Homo sapiens) (UniProt P11229); assay: Cholinergic receptor muscarinic 1 (CHRM1) small molecule antagonists, cell-based qHTS assay (AID 1963588); also: potency is read from the fitted curve at half-maximal effect; nearly all actives have a fitted effect of over 40% in size
# How it was run: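 Compounds were tested at 15 concentrations in three independent runs. Dye-loaded CHRM1-CHO cells were exposed 5 min at room temperature before stimulation by acetylcholine added at 50nM. Intracellular calcium was read kinetically on FDSS for 3 min.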
# [4] = biological target: Beta-2 adrenergic receptor (Homo sapiens) (UniProt P07550); assay: Adrenergic beta2 receptor (ADRB2) small molecule agonists, cell-based qHTS assay (AID 1963593); details: CHO-ADRB2 cells, cAMP HTRF, 30 min; activation: at 92.4 µM (top of the series) unless noted; also: potency is read from the fitted curve at half-maximal effect;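 as to activation: CHO cells stably overexpressing human ADRB2; % is scaled to controls: 0 for no effect and ±100 for the full control effect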
# How it was run: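 CHO cells stably over-expressing ADRB2 were plated overnight at 37C, then dosed with compounds plus a stimulation mix containing 100uM IBMX and 25uM Ro-20-1724 for 0.5hr at room temperature. cAMP was measured by HTRF competition, 1hr.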
# [5] = biological target: 5-hydroxytryptamine receptor 2A (Homo sapiens) (UniProt P28223); assay: 5-hydroxytryptamine receptor 2A (HTR2A) small molecule agonists, cell-based qHTS assay (AID 1963587); details: HTR2A-CHO cells, calcium flux fluorescence, agonist mode; activation: at 76.8 µM (top of the series); also: % is scaled to controls: 0 for no effect and ±100 for the full control effect; nearly all actives have a fitted effect of over 30% in size
# How it was run: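 Kinetic calcium-flux fluorescence (2 min, 1 sec intervals) after compound addition in agonist mode. HTR2A-CHO cells were cultured 18 h, then dye-loaded 1 h at 37 C.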
# [6] = biological target: Beta-2 adrenergic receptor (Homo sapiens) (UniProt P07550); assay: Adrenergic beta2 receptor (ADRB2) small molecule antagonists, cell-based qHTS assay (AID 1963592); details: CHO-ADRB2 cells, isoproterenol-stimulated cAMP HTRF ratio, 0.5 h; activity change, negative = inhibition: at 92.4 µM (top of the series) unless noted; also: % is scaled to controls: 0 for no effect and ±100 for the full control effect; nearly all actives have a fitted effect of over 50% in size
# How it was run: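 Assay format: CHO-ADRB2 cells, 18-20hr seeding at 37C/5% CO2, then compound plus 1nM isoproterenol agonist mix for 0.5hr RT. Homogeneous time-resolved fluorescence cAMP detection after 1hr, expressed as 665/615 nm ratio.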
# [7] = biological target: D(2) dopamine receptor (Homo sapiens) (UniProt P14416); assay: Dopamine D2 receptor (DRD2) small molecule agonists, cell-based qHTS assay (AID 1963594); details: HEK293-DRD2 cAMP HTRF, agonist mode, 30 min; activation: at 92.4 µM (top of the series) unless noted; also: potency is read from the fitted curve at half-maximal effect; nearly all actives have a fitted effect of over 35% in size
# How it was run: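 cAMP accumulation in DRD2-HEK293 cells measured by HTRF after 1 h detection; compounds added 10 min before NKH477 (200nM […]) forskolin-analogue stimulation, 30 min at room temperature, with Ro20-1724 present at 0.1 mM final.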
# [8] = cAMP Responsive Elements (CRE) small molecule antagonists, cell-based qHTS assay (AID 1963591; active = well fitted inhibition curve with a large enough effect in the signal ratio in the repeat runs, not every such curve was filed as active; inconclusive = weak or mixed curves, or effect the other way; the % refers to the signal ratio; also: % is scaled to controls: 0 for no effect and ±100 for the full control effect); details: CRE-bla HEK293T, beta-lactamase FRET ratio; activity change, negative = inhibition: at 92.4 µM (top of the series) unless noted
# How it was run: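 Cells (CRE-bla HEK 293T, DMEM with 10% dialyzed FBS and 25 mM HEPES) are seeded and incubated 18 h. Compounds are added with NKH477 agonist at 0.25 uM final for 3 h, then FRET substrate for 2 h.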
# [9] = p53 small molecule agonists, cell-based qHTS assay with rat liver microsomes: qHTS cell viability counter screen (AID 1963580); also: % is scaled to controls: 0 for no effect and ±100 for the full control effect; nearly all actives have a fitted effect of over 45% in size
# How it was run: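 Rat liver microsome (0.5 mg/mL final) and NADPH (0.5 mg/mL final) co-incubation with compounds for 16 h at 37 C on HCT-116 p53RE-bla cells; cytotoxicity taken from intracellular ATP luminescence.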
# [10] = p53 small molecule agonists, cell-based qHTS assay (AID 1963582; active = well fitted activation curve with a large enough effect in the signal ratio in the repeat runs, not every such curve was filed as active; inconclusive = weak or mixed curves; the % refers to the signal ratio; also: % is scaled to controls: 0 for no effect and ±100 for the full control effect); details: HCT-116 p53RE-bla reporter, beta-lactamase FRET ratio, 16 h; activation: at 66 µM (top of the series) unless noted
# How it was run: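 Cells carrying a p53-responsive bla reporter are treated with test compounds for 16 h at 37 C; beta-lactamase activity is then detected with LiveBLAzer B/G FRET substrate after 2 h at room temperature.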
# [11] = biological target: D(2) dopamine receptor (Homo sapiens) (UniProt P14416); assay: Dopamine D2 receptor (DRD2) small molecule antagonists, cell-based qHTS assay (AID 1963595; active = well fitted inhibition curve with a large enough effect in the signal ratio in the repeat runs, with a control signal flat; inconclusive = weak or mixed curves, or effect the other way; the % refers to the signal ratio; also: % is scaled to controls: 0 for no effect and ±100 for the full control effect); details: HEK293-DRD2 cAMP HTRF antagonist mode; activity change, negative = inhibition: at 92.4 µM (top of the series) unless noted
# How it was run: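 HTRF cAMP read-out at 665 and 620 nm emission (340 nm excitation). Antagonist mode: compounds were tested against 12 nM quinpirole in DRD2-HEK293 cells, with 200 nM NKH477 raising cAMP and 0.1 mM Ro20-1724 blocking its breakdown.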
smiles,measurement,setting,value
CCN1CCCC1CNC(=O)C(O)(c1ccccc1)c1ccccc1 (stereo unspecified),Potency,[1],"inconclusive: 1580 nM [rising, partial curve, poor fit]"
same,Potency,[2],"inconclusive: 4100 nM [inhibitor, partial curve, poor fit]"
same,Potency,[3],active: 91.8 nM
same,activation,[4],inconclusive: 19.6% [at 42.5 µM]
CCCCc1ccccc1,Potency,[1],"inconclusive: 363 nM [cytotoxic, single point]"
same,Potency,[4],inactive
Oc1ccc2c3c1O[C@H]1[C@@H](O)C=C[C@H]4[C@@H](C2)NCC[C@@]341,Potency,[1],"inconclusive: 471 nM [cytotoxic, single point]"
same,Potency,[5],inactive
Clc1ccc(Cl)cc1,Potency,[1],"inconclusive: 1820 nM [cytotoxic, single point]"
same,activation,[4],inconclusive: 1.36%
CS(=O)(=O)c1cc(C(F)(F)F)ccc1C(=O)c1cnoc1C1CC1,Potency,[1],"inconclusive: 646 nM [rising, partial curve, poor fit]"
same,Potency,[3],"inconclusive: 4210 nM [inhibitor, single point]"
same,"activity change, negative = inhibition",[6],inconclusive: -6.81%
same,Potency,[7],"inconclusive: 68600 nM [rising, single point]"
CC(C)(C1CCC(O)CC1)C1CCC(O)CC1 (stereo unspecified),Potency,[1],inactive
same,activation,[4],inconclusive: -5.58%
C=C(C)[C@H]1CN[C@H](C(=O)O)[C@H]1CC(=O)O,Potency,[1],inactive
same,Potency,[5],inactive
same,Potency,[8],inactive
same,Potency,[4],inactive
CC(Cc1ccc(C(C)(C)C)cc1)CN1C[C@@H](C)O[C@@H](C)C1 (stereo partly specified),Potency,[9],inactive
same,Potency,[10],inactive
same,Potency,[2],"inconclusive: 14900 nM [inhibitor, single point]"
same,Potency,[3],active: 37500 nM
same,Potency,[4],inconclusive: 61100 nM [inhibitor]
same,"activity change, negative = inhibition",[11],inconclusive: -25.1%

# Two entries from above, reformatted.
smiles | measurement | setting | value
C=C(C)[C@H]1CN[C@H](C(=O)O)[C@H]1CC(=O)O | Potency | [4] | inactive
CC(Cc1ccc(C(C)(C)C)cc1)CN1C[C@@H](C)O[C@@H](C)C1 (stereo partly specified) | Potency | [9] | inactive
